Results: patent publication US20240182599A1
These are yes or no findings as the source states them, for the method shown. Some binding calls cover weakened binding; strength is not graded here.

Protein sequences, listed by entry. Tags and fused reporters are not part of them. Lines headed by an entry give the natural chain unless they say otherwise; changes in a name come on top. Chains listed by the source or under a name are the forms on record and can include a tag or linker. Residues count along the entry.
recombinant His6-tagged Cε2 protein of human IgE (P01854, residues 104-210): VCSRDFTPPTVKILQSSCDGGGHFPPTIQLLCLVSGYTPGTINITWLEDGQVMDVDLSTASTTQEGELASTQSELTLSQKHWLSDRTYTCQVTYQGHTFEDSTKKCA
recombinant human IgE Cε2-4 protein (P01854, form named): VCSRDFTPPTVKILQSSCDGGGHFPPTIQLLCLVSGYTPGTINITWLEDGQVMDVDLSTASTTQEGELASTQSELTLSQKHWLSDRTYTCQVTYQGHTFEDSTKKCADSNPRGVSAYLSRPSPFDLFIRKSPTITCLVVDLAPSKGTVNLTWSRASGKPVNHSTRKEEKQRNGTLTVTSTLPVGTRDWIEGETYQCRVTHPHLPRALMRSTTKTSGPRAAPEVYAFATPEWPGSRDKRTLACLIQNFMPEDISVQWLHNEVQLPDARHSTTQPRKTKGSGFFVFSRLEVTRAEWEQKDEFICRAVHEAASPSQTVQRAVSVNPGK

What was measured:
[1] = biological target: recombinant human IgE Cε2-4 protein (human) (UniProt P01854); test: ELISA on coated Cε2-4
[2] = biological target: recombinant His6-tagged Cε2 protein of human IgE (human) (UniProt P01854); test: ELISA on coated recombinant His6-tagged Cε2

| Binder | binding [1] | binding [2] |
| --- | --- | --- |
| 21626B-C4-8 Fab (Fab, V domains shown) VH: QSLEESGGRLVTPGTPLTLTCTASGFSLSSYYMSWVRQAPEKGLEWIGIIYPSGNTYYANWANGRFAISRTSTTVDLKITSPTTEDTATYFCARDSGYPDIWGPGTLVTVSL VL: ALVMTQTPSSVSAAVGGTVTINCQASQSISSYLSWYQQKPGQRPKPLIYETSKLASGVSSRFSGSGSGTEFTLTISGVECADAATYYCQQDAGVINVHNTFGGGTEVVVK | binds | binds |
| 21626B-H3 Fab (Fab, V domains shown) VH: QSLGESRGRLVTPGGSLTLTCTASGFSLSSYAMGWVRQAPGKGLEYIGWISAGGTTYYASWVNSRFTISRTSTTVDLEMTSLTTEDTATYFCAREGTGWGAYDIWGPGTLVTVSL VL: ALVMTQTPASVSAAVGGTVTINCQASQSIHKYLSWYQQKPGQPPKLLIYRASTLASGVPSRFKGSGSGTQFTLTISDLECDDAATYYCQQDAAVISIDNSFGGGTEVVVK | binds | binds |
| 21626B-A8 Fab (Fab, V domains shown) VH: QLEESGGRLVTPGTPLTLTCTVSGIDLSSDSIGWVRQAPGKGLEWIGIIYPSGNVYYASWAKGRLTISKTSTTVELKMTSLTTEDTATYFCARDYYSTTLDIWGPGTLVTVSL VL: ALVMTQTPSSVSAVVGGTVTINCQASQSISSYLSWYQQKPGQRPKPLIYEASKLASGVSSRFKGSGSGTEFTLTISGVECADAATYYCQQDAAVMNVDNTFGGGTEVVVK |  | binds |
